The list shows a part of the results. The calls rarely recur for the same compound in another form.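 Kinases, fused to nanoluciferase, were expressed in K562 cells; luminescence was measured every 4 h from 2 to 18 h as percent of control (DMSO = 100%, positive control = 0%). A time point is decreased if signal falls significantly (2 sigma). Hits were called by the authors by a rule that is not shown; the count of time points alone does not decide it.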
Legend:
Test in all cases: kinase-Nluc reporter destabilization hit call (1 = scored as downregulated) (binary); higher = compound decreases kinase abundance
Details in all cases: K562, 2-18 h
MAPK1 = MAPK1 (UniProt P28482)
MAPK4 = MAPK4 (UniProt P31152)
MAPKAPK2 = MAPKAPK2 (UniProt P49137)
MKNK1 = MKNK1 (UniProt Q9BUB5)
NTRK2 = NTRK2 (UniProt Q16620)
NTRK3 = NTRK3 (UniProt Q16288)
PAK4 = PAK4 (UniProt O96013)
PBK = PBK (UniProt Q96KB5)
PDGFRB = PDGFRB (UniProt P09619)
PDK1 = PDK1 (UniProt Q15118)
PDPK1 = PDPK1 (UniProt O15530)
PIK4CA = PIK4CA (UniProt P42356)
PIK4CB = PIK4CB (UniProt Q9UBF8)
PLK1 = PLK1 (UniProt P53350)
PRKAA1 = PRKAA1 (UniProt Q13131)
PRKCA = PRKCA (UniProt P17252)
PTK2 = PTK2 (UniProt Q05397)
PTK2B = PTK2B (UniProt Q14289)
RAF1 = RAF1 (UniProt P04049)
[1] = molecular target: RAF1_S257L (clone: RAF1_mut) (UniProt P04049)

Protein sequences, listed by entry. Tags and fused reporters are not part of them. Lines headed by an entry give the natural chain unless they say otherwise; changes in a name come on top.
UniProt P28482, whole entry: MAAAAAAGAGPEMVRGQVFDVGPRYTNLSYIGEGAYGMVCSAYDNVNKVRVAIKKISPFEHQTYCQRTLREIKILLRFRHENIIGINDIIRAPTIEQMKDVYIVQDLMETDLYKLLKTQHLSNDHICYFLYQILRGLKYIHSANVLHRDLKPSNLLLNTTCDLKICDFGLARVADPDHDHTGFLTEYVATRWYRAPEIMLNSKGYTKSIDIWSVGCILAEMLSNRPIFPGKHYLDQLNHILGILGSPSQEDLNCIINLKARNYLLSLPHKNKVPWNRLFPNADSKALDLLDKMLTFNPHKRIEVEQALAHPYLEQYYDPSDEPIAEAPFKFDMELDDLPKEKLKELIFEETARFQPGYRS
UniProt P31152, whole entry: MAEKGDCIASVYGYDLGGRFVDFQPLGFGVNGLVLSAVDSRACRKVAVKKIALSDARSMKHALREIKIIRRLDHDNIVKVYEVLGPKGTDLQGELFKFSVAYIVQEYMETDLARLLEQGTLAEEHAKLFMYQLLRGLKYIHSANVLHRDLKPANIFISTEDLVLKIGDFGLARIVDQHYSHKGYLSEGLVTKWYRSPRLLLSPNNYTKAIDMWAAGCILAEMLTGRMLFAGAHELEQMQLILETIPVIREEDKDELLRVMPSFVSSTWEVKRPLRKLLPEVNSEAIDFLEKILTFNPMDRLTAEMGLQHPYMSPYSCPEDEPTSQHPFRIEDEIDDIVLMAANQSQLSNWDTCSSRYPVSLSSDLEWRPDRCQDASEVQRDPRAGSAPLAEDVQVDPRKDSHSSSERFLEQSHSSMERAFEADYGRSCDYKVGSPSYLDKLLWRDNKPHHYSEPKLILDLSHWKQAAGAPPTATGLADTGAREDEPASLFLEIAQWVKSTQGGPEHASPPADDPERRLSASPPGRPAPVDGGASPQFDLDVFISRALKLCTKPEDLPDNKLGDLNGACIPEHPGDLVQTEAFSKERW
UniProt P49137, whole entry, looked up: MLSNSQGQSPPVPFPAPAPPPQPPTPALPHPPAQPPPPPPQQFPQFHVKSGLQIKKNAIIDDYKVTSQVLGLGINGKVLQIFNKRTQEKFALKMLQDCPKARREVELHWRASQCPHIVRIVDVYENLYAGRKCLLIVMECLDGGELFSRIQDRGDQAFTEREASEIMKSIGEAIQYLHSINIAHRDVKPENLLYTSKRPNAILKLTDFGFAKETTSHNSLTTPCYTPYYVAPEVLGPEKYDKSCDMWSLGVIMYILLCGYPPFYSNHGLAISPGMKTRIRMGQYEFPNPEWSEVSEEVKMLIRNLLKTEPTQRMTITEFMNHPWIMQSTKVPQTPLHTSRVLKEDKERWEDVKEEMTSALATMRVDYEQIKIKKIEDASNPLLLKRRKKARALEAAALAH
UniProt Q16288, whole entry, looked up: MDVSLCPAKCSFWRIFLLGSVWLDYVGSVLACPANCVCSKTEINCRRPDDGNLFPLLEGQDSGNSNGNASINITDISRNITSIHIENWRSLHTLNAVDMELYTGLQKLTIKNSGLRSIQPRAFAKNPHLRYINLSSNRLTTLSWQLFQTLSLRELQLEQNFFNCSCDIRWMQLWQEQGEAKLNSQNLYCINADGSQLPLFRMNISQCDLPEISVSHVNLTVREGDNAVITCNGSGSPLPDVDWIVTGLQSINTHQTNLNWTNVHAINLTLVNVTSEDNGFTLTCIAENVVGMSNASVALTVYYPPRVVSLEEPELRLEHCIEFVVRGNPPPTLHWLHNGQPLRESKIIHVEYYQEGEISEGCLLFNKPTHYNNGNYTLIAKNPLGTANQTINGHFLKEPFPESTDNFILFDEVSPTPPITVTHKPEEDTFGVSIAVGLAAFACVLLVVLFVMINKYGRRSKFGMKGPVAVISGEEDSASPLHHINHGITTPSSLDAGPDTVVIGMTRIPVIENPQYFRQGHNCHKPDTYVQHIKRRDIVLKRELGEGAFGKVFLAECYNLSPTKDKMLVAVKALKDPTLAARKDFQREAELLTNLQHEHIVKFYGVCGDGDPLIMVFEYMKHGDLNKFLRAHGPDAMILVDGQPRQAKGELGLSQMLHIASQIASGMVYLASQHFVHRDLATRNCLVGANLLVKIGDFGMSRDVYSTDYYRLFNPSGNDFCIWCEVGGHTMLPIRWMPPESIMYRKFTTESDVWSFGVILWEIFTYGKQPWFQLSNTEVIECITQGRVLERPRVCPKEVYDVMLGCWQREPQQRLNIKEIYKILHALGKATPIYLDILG
UniProt O96013: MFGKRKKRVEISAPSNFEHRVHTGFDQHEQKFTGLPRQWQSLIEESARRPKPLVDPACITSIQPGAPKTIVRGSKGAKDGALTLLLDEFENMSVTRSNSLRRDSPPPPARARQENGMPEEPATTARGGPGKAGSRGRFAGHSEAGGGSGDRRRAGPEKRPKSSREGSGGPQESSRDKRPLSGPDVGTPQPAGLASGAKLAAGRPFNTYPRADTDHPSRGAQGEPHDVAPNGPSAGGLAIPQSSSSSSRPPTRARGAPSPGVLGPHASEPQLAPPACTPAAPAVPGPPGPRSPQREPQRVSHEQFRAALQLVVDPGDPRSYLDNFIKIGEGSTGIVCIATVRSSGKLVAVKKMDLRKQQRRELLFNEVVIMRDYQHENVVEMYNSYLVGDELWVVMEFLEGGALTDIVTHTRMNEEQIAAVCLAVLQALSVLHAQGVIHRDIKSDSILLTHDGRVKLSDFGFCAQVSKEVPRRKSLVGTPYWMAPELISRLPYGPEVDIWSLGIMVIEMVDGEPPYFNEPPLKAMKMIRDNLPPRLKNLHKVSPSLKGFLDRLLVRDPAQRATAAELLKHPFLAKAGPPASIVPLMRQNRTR
UniProt Q96KB5: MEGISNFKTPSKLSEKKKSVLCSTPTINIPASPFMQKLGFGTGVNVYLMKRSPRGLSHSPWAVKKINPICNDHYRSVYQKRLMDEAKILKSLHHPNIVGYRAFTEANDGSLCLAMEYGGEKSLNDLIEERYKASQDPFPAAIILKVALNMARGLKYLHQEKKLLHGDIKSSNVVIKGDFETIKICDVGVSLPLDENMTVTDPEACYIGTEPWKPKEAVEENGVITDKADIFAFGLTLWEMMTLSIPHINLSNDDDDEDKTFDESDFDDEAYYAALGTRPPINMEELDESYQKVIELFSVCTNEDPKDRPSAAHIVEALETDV
UniProt Q15118, whole entry, looked up: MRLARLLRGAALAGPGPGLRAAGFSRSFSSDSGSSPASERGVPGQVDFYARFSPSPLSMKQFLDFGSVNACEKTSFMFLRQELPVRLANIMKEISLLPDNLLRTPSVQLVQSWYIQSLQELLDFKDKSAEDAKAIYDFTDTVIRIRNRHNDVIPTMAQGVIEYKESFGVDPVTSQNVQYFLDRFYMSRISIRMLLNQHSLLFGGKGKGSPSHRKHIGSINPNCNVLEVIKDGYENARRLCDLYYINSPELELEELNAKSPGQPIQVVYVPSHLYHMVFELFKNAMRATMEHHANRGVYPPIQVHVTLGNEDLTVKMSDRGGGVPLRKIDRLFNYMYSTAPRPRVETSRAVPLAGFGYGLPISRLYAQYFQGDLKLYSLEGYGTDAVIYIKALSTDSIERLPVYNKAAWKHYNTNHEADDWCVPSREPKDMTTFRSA
UniProt O15530: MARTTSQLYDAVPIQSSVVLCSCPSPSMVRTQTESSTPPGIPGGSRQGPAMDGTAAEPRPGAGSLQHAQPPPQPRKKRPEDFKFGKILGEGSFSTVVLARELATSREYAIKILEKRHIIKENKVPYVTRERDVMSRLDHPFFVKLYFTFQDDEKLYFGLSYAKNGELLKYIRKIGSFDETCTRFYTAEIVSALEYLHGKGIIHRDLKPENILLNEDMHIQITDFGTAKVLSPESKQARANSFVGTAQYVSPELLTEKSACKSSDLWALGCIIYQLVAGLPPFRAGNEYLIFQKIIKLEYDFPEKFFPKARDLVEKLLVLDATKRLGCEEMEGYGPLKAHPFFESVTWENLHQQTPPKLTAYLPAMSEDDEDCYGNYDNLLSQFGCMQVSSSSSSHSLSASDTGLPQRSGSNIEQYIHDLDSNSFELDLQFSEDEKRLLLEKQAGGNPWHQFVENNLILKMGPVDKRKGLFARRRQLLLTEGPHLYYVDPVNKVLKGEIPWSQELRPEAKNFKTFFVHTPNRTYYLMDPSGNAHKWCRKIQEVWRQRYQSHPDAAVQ
UniProt Q9UBF8: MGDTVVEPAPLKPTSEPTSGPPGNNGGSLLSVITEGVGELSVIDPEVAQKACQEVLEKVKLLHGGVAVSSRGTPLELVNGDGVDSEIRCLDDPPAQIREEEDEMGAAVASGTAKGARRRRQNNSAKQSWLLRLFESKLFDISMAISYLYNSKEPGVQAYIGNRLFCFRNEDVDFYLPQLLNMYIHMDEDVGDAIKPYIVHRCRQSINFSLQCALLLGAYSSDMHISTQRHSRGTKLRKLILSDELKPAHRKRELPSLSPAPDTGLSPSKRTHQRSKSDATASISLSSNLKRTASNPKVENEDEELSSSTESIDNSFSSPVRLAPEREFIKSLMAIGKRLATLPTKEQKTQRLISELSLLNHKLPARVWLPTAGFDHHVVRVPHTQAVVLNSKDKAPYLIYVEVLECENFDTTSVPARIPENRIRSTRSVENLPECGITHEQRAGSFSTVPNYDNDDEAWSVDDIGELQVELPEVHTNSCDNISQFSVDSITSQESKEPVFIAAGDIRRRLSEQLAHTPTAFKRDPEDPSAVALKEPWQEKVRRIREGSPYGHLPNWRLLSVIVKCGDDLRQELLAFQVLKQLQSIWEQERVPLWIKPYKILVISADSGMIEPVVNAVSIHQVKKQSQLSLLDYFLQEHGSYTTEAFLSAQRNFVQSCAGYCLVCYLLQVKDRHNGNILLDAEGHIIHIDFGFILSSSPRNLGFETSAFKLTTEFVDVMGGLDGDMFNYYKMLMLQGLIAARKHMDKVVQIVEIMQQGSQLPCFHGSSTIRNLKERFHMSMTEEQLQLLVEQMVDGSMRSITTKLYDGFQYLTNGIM
UniProt P53350, whole entry: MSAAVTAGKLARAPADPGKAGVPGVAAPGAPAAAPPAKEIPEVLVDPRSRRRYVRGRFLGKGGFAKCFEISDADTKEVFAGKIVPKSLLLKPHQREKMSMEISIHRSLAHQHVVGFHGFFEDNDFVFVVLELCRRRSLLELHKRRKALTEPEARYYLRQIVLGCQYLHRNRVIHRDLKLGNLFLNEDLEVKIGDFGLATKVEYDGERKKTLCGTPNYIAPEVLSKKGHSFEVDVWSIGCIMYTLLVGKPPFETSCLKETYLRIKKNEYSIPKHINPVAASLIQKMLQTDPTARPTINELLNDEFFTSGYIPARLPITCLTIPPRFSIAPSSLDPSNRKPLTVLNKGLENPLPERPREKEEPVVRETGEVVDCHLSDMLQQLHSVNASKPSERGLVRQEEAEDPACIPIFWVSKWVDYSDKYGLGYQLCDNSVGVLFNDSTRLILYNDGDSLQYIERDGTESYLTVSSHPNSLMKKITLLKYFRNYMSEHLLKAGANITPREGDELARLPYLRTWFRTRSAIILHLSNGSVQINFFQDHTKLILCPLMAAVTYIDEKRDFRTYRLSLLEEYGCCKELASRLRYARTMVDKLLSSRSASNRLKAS
UniProt Q14289, whole entry, looked up: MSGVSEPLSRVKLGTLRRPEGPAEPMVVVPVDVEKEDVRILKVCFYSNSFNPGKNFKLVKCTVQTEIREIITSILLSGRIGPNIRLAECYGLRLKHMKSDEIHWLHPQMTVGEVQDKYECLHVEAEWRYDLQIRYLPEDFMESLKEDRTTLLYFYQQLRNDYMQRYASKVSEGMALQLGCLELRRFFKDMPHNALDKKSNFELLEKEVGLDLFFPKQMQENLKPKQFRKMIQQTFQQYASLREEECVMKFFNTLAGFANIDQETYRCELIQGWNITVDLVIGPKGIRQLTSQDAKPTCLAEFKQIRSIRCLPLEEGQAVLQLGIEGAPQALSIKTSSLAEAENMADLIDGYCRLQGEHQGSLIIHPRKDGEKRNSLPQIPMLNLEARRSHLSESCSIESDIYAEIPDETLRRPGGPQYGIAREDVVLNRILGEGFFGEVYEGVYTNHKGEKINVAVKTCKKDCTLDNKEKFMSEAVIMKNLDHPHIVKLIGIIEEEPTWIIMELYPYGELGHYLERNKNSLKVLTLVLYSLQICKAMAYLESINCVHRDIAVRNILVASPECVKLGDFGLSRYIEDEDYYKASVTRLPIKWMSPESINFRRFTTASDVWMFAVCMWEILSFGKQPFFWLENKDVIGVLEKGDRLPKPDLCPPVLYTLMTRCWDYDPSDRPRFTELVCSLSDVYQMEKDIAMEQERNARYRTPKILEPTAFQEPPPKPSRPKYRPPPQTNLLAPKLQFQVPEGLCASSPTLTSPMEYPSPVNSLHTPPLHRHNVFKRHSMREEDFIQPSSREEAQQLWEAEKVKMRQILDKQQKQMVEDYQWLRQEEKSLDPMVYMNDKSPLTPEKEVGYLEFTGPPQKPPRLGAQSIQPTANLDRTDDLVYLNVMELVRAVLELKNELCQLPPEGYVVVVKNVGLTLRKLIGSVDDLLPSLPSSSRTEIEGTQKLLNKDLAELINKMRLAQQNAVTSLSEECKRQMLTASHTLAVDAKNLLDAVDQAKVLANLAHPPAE

Measured: kinase-Nluc reporter destabilization hit call

O=C1Nc2ccccc2/C1=C/c1ccccn1 [(E/Z)-GSK-3β inhibitor 1]
inactive: MAPK1; 10 µM 0 | MAPK4; 10 µM 0 | MAPKAPK2; 10 µM 0 | MKNK1; 10 µM 0 | NTRK2; 10 µM 0 | NTRK3; 10 µM 0 | PAK4; 10 µM 0 | PBK; 10 µM 0 | PDGFRB; 10 µM 0 | PDK1; 10 µM 0 | PDPK1; 10 µM 0 | PIK4CA; 10 µM 0 | PIK4CB; 10 µM 0 | PLK1; 10 µM 0 | PRKAA1; 10 µM 0 | PRKCA; 10 µM 0 | PTK2; 10 µM 0 | PTK2B; 10 µM 0 | RAF1; 10 µM 0 | [1]; 10 µM 0

Nc1cncc(-c2cn3ccnc3c(Nc3ccc(N4CCN(C5COC5)CC4)cc3)n2)n1 [Lanraplenib]
inactive: MAPK1; 10 µM 0 | MAPK4; 10 µM 0 | MAPKAPK2; 10 µM 0 | MKNK1; 10 µM 0 | NTRK2; 10 µM 0 | NTRK3; 10 µM 0 | PAK4; 10 µM 0 | PBK; 10 µM 0 | PDGFRB; 10 µM 0 | PDK1; 10 µM 0 | PDPK1; 10 µM 0 | PIK4CA; 10 µM 0 | PIK4CB; 10 µM 0 | PLK1; 10 µM 0 | PRKAA1; 10 µM 0 | PRKCA; 10 µM 0 | PTK2; 10 µM 0 | PTK2B; 10 µM 0 | RAF1; 10 µM 0 | [1]; 10 µM 0

C=CC(=O)Nc1cc(Nc2ncc(C(=O)OC(C)C)c(-c3cn(C)c4ccccc34)n2)c(OC)cc1N(C)CCN(C)C [Mobocertinib (succinate)]
inactive: MAPK1; 10 µM 0 | MAPK4; 10 µM 0 | MAPKAPK2; 10 µM 0 | MKNK1; 10 µM 0 | NTRK2; 10 µM 0 | NTRK3; 10 µM 0 | PAK4; 10 µM 0 | PBK; 10 µM 0 | PDGFRB; 10 µM 0 | PDK1; 10 µM 0 | PDPK1; 10 µM 0 | PIK4CA; 10 µM 0 | PIK4CB; 10 µM 0 | PLK1; 10 µM 0 | PRKAA1; 10 µM 0 | PRKCA; 10 µM 0 | PTK2; 10 µM 0 | PTK2B; 10 µM 0 | RAF1; 10 µM 0 | [1]; 10 µM 0

C#Cc1cccc(Nc2ncnc3cc(OCCOC)c(OCCOC)cc23)c1 [Erlotinib]
inactive: MAPK1; 10 µM 0 | MAPK4; 10 µM 0 | MAPKAPK2; 10 µM 0 | MKNK1; 10 µM 0 | NTRK2; 10 µM 0 | NTRK3; 10 µM 0 | PAK4; 10 µM 0 | PBK; 10 µM 0 | PDGFRB; 10 µM 0 | PDK1; 10 µM 0 | PDPK1; 10 µM 0 | PIK4CA; 10 µM 0 | PIK4CB; 10 µM 0 | PLK1; 10 µM 0 | PRKAA1; 10 µM 0 | PRKCA; 10 µM 0 | PTK2; 10 µM 0 | PTK2B; 10 µM 0 | RAF1; 10 µM 0 | [1]; 10 µM 0

CCN(CC)Cc1ccc(OC)c(-c2cc3c(-c4ccc(C(=O)O)c(C(C)C)c4)ccnc3[nH]2)c1
inactive: MAPK1; 2.5 µM 0 | MAPK1; 10 µM 0 | MAPK4; 2.5 µM 0 | MAPK4; 10 µM 0 | MAPKAPK2; 2.5 µM 0 | MAPKAPK2; 10 µM 0 | MKNK1; 2.5 µM 0 | MKNK1; 10 µM 0 | NTRK2; 2.5 µM 0 | NTRK2; 10 µM 0 | NTRK3; 2.5 µM 0 | NTRK3; 10 µM 0 | PAK4; 2.5 µM 0 | PAK4; 10 µM 0 | PBK; 2.5 µM 0 | PBK; 10 µM 0 | PDGFRB; 2.5 µM 0 | PDGFRB; 10 µM 0 | PDK1; 2.5 µM 0 | PDK1; 10 µM 0 | PDPK1; 2.5 µM 0 | PDPK1; 10 µM 0 | PIK4CA; 2.5 µM 0 | PIK4CA; 10 µM 0 | PIK4CB; 2.5 µM 0 | PIK4CB; 10 µM 0 | PLK1; 2.5 µM 0 | PLK1; 10 µM 0 | PRKAA1; 2.5 µM 0 | PRKAA1; 10 µM 0 | PRKCA; 2.5 µM 0 | PRKCA; 10 µM 0 | PTK2; 2.5 µM 0 | PTK2; 10 µM 0 | PTK2B; 2.5 µM 0 | PTK2B; 10 µM 0 | RAF1; 2.5 µM 0 | RAF1; 10 µM 0 | [1]; 2.5 µM 0 | [1]; 10 µM 0

C[C@H](CCC(=O)NCCS(=O)(=O)O)[C@H]1CC[C@H]2[C@@H]3[C@@H](O)C[C@@H]4C[C@H](O)CC[C@]4(C)[C@H]3CC[C@]12C [Tauroursodeoxycholate (dihydrate)]
inactive: MAPK1; 10 µM 0 | MAPK4; 10 µM 0 | MAPKAPK2; 10 µM 0 | MKNK1; 10 µM 0 | NTRK2; 10 µM 0 | NTRK3; 10 µM 0 | PAK4; 10 µM 0 | PBK; 10 µM 0 | PDGFRB; 10 µM 0 | PDK1; 10 µM 0 | PDPK1; 10 µM 0 | PIK4CA; 10 µM 0 | PIK4CB; 10 µM 0 | PLK1; 10 µM 0 | PRKAA1; 10 µM 0 | PRKCA; 10 µM 0 | PTK2; 10 µM 0 | PTK2B; 10 µM 0 | RAF1; 10 µM 0 | [1]; 10 µM 0

O=C(c1nn(-c2ccc(CN3CCOCC3)cc2)c2c1CS(=O)(=O)c1c(F)cccc1-2)N1CCOCC1
inactive: MAPK1; 10 µM 0 | MAPK4; 10 µM 0 | MAPKAPK2; 10 µM 0 | MKNK1; 10 µM 0 | NTRK2; 10 µM 0 | NTRK3; 10 µM 0 | PAK4; 10 µM 0 | PBK; 10 µM 0 | PDGFRB; 10 µM 0 | PDK1; 10 µM 0 | PDPK1; 10 µM 0 | PIK4CA; 10 µM 0 | PIK4CB; 10 µM 0 | PLK1; 10 µM 0 | PRKAA1; 10 µM 0 | PRKCA; 10 µM 0 | PTK2; 10 µM 0 | PTK2B; 10 µM 0 | RAF1; 10 µM 0 | [1]; 10 µM 0
